# Measurements published in PMC7819943, “Rice protein-binding microarrays: a tool to detect cis-acting elements near promoter regions in rice”.
# Protein sequences, listed by entry. Tags and fused reporters are not part of them.
# UniProt Q0JBA9, entry or part of it: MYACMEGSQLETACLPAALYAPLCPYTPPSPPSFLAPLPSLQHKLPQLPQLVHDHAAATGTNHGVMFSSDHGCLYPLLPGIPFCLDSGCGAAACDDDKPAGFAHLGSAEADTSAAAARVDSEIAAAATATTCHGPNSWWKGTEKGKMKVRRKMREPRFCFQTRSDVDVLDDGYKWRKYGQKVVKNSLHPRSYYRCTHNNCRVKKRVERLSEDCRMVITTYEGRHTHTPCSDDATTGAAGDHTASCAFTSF
# Some of the results follow.
# Biological target: OsWRKY34 (Oryza sativa, UniProt Q0JBA9 1-250)
# Experiment: protein-binding microarray (RPBM); PBS, 2% BSA, 51.3 ng/ul salmon testes DNA, 50 uM zinc acetate, 200 nM TF, 25 C, 1 h; high values mean tight binding
# Conditions: protein: recombinant; tags: N-terminal polyhistidine and DsRed monomer fusion (pET32a); label: CyDye5-dUTP incorporated in the synthesized complementary strand; 3' TTTTT single-stranded linker to array surface; dsDNA, one strand shown
# Method in brief: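 Using Ni–NTA, transcription factors fused N-terminally to polyhistidine and DsRed were purified after expression in E. coli BL21-CodonPlus. These were incubated at 200 nM with a blocked, double-stranded custom Agilent array for 1 h at 25 °C in a buffer containing 50 µM zinc acetate, and the array was washed. The binding signal is per-feature fluorescence intensity (arbitrary units) on an Axon 4000B scanner.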
row,Sequence,binding signal
1,GGCACATGGTCTTCTTTACCGCTTCCATTATTTCCGTCAGCGGAGTCACCTAGTGCAG,9660 fluorescence intensity (a.u.)
2,AGGTGGTTTACTATTAATCAGTCTATTGCTGAGATGTACACGGAGTCACCTAGTGCAG,8130 fluorescence intensity (a.u.)
3,ACTCATTTTACTATGCGTCTCTACCTTTTTCTTCTACCCGCGGAGTCACCTAGTGCAG,9850 fluorescence intensity (a.u.)
4,TTGCATTCTATTTTTCTTTTTTGTCTTTGATGTTCTTTTGCGGAGTCACCTAGTGCAG,11900 fluorescence intensity (a.u.)
5,GTTGGAATCCCCTACGAAATCCGGCCGCCGCCTCTGACCTCGGAGTCACCTAGTGCAG,8670 fluorescence intensity (a.u.)
6,TTTGTTGGAAGTATTGATCTTTTTTCCTTTGCTTTTTGTCCGGAGTCACCTAGTGCAG,9290 fluorescence intensity (a.u.)
7,CACGTCGCCGCCTGCCTGCTCCGCTCTCCGCCGCTCGCCCCGGAGTCACCTAGTGCAG,8040 fluorescence intensity (a.u.)
8,TCTGCTTTGTTCTAACTTTTCTGCTTTTCTTGCATGGAGTCGGAGTCACCTAGTGCAG,8340 fluorescence intensity (a.u.)
9,AGGTTCTATGACAGTATTGCACCCGGTTTTGTCAGCTGACCGGAGTCACCTAGTGCAG,8600 fluorescence intensity (a.u.)
10,TCCTAATTGAAGGGGATGGGGCAGTCTCTGGTCGACCTCACGGAGTCACCTAGTGCAG,10500 fluorescence intensity (a.u.)
11,TAAAACAGTTTGACTTTGACTAAAGTCAAAACGTTTTATACGGAGTCACCTAGTGCAG,10700 fluorescence intensity (a.u.)
12,GAGGTGGAAGAAAGTAGTAACAGGGGCATTTTTCTCCGTTCGGAGTCACCTAGTGCAG,9080 fluorescence intensity (a.u.)
13,GGGAGGAGGAGGAGGAGAAGGGCGGCGGGAGGAGGGGCGACGGAGTCACCTAGTGCAG,14000 fluorescence intensity (a.u.)
14,TCATGCTAACGTCTAACCTCATCGTTATCGTCGTGTCACGCGGAGTCACCTAGTGCAG,9300 fluorescence intensity (a.u.)
15,CCACCAATTAAACACGTCTATCTTGCCATATATTCCTCACCGGAGTCACCTAGTGCAG,10900 fluorescence intensity (a.u.)
16,GTGGTCCTCCACTTTCCACACCTGCACCGCTGCTGCAGCACGGAGTCACCTAGTGCAG,8630 fluorescence intensity (a.u.)
17,TTGATTTTGCTCGTGGTGTGTGTTTGTGTTTGGTATGGTTCGGAGTCACCTAGTGCAG,18400 fluorescence intensity (a.u.)
18,TTGGTCCAAATTTGTGCACCCTCTCATGCCACTACCGTCACGGAGTCACCTAGTGCAG,8520 fluorescence intensity (a.u.)
19,CTTTTTCTCTCTCATCAATCTCTCTCTCTCCACATCCATCCGGAGTCACCTAGTGCAG,8160 fluorescence intensity (a.u.)
20,CCTATATCATCCTTTGATAAGATCGACTGTTTGCTATTTACGGAGTCACCTAGTGCAG,9940 fluorescence intensity (a.u.)
21,TTGTATTTTTTTTGTTCTCTCTTCATCCTACTCAATTATTCGGAGTCACCTAGTGCAG,12100 fluorescence intensity (a.u.)

row,Sequence,binding signal
1,TGTCTTATGTTATGTGAGAATACAATCCCTCACCGTGCTTCGGAGTCACCTAGTGCAG,8220 fluorescence intensity (a.u.)
2,TTTCAACGCAAAAGTTCACCCTTTTTTCTGCTTCCTTTTTCGGAGTCACCTAGTGCAG,8370 fluorescence intensity (a.u.)
3,ATTCGCCCCAGACACCACATTTCTTGGTACATAGCTAGCTCGGAGTCACCTAGTGCAG,8780 fluorescence intensity (a.u.)
4,GGGCTATCATCCTTATTGAGTACTCTTGTTGGTTTCTTCTCGGAGTCACCTAGTGCAG,11400 fluorescence intensity (a.u.)
5,CGGGCGGCTGAGATTCAATGTGGGGCGCGTGGGGTGGCGACGGAGTCACCTAGTGCAG,8650 fluorescence intensity (a.u.)
6,CATTCATTGTTCTTGTTCTTGTTCTTGCTCTTGCTCTTCTCGGAGTCACCTAGTGCAG,11400 fluorescence intensity (a.u.)
7,CCTACTTGGGAAGTTGGGTGGGATTGGCGTCGTGTTCGTGCGGAGTCACCTAGTGCAG,8050 fluorescence intensity (a.u.)
8,GGGATCGCGGAGTTGACCCGTATTGCATGCAGGCAGCTGCCGGAGTCACCTAGTGCAG,8600 fluorescence intensity (a.u.)
9,ACCGCTCTTTCTTTCCGCCTTATCGGCTCAAGTGGCCGTGCGGAGTCACCTAGTGCAG,11700 fluorescence intensity (a.u.)
10,TCGACAATGTCACTCCATCATATCATGGCCAAAATATAACCGGAGTCACCTAGTGCAG,8140 fluorescence intensity (a.u.)
11,TCATTCCGATTTGGTGGGGTTTGAGTTTGATTGATTCTTTCGGAGTCACCTAGTGCAG,19300 fluorescence intensity (a.u.)
12,TTTGCACCGTCGACGCGTTCCCGCTGGTTTCCGTTTGTTGCGGAGTCACCTAGTGCAG,8190 fluorescence intensity (a.u.)
13,GTGTCGTCTCACTCATTTATATCTGTAGTTGCTCGCGGTACGGAGTCACCTAGTGCAG,9550 fluorescence intensity (a.u.)
14,GAGAACCTTCGTCGTAGTAGCCGCGAGCGCACATCCTCATCGGAGTCACCTAGTGCAG,9310 fluorescence intensity (a.u.)
15,GAGGGTGTGATTTTCCGGTATCGTTTTTGAGAGAGTTGAGCGGAGTCACCTAGTGCAG,9580 fluorescence intensity (a.u.)
16,CAATTTCTCCTTGCACGCTACGTACACACCAACGGCCCAGCGGAGTCACCTAGTGCAG,8260 fluorescence intensity (a.u.)
17,ATGGGTAAAGGGTTATGTCACATTTTTATGACGGGTTCCACGGAGTCACCTAGTGCAG,10400 fluorescence intensity (a.u.)
18,GGGCGGGTTTGGATTTTTATTTGGTTTTCCTATGGAGTCCCGGAGTCACCTAGTGCAG,17800 fluorescence intensity (a.u.)
19,CCATCTGCACAAGTACCCTCCCATCCAGCAGGCCCCACCACGGAGTCACCTAGTGCAG,8480 fluorescence intensity (a.u.)
20,ACCAATTTGATCATTAACTTTTATACCAACATGACCACATCGGAGTCACCTAGTGCAG,10300 fluorescence intensity (a.u.)
21,GCTTAGACCAACACCTCTGACGGCCTTCTATTAACTTGCCCGGAGTCACCTAGTGCAG,8960 fluorescence intensity (a.u.)

# Three records drawn at random from those above, as already listed:
row,Sequence,binding signal
8,GGGATCGCGGAGTTGACCCGTATTGCATGCAGGCAGCTGCCGGAGTCACCTAGTGCAG,8600 fluorescence intensity (a.u.)
2,TTTCAACGCAAAAGTTCACCCTTTTTTCTGCTTCCTTTTTCGGAGTCACCTAGTGCAG,8370 fluorescence intensity (a.u.)
21,GCTTAGACCAACACCTCTGACGGCCTTCTATTAACTTGCCCGGAGTCACCTAGTGCAG,8960 fluorescence intensity (a.u.)
